This passage reports binding results from publication PMC5458265.

Protein sequences, listed by entry. Tags and fused reporters are not part of them.
UniProt Q07817: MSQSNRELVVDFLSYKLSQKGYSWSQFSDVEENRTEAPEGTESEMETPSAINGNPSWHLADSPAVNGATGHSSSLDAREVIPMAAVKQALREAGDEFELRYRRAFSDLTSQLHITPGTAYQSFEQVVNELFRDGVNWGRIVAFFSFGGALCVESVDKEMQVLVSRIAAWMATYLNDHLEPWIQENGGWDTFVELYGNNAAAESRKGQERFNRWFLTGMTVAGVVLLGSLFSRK
UniProt Q14457: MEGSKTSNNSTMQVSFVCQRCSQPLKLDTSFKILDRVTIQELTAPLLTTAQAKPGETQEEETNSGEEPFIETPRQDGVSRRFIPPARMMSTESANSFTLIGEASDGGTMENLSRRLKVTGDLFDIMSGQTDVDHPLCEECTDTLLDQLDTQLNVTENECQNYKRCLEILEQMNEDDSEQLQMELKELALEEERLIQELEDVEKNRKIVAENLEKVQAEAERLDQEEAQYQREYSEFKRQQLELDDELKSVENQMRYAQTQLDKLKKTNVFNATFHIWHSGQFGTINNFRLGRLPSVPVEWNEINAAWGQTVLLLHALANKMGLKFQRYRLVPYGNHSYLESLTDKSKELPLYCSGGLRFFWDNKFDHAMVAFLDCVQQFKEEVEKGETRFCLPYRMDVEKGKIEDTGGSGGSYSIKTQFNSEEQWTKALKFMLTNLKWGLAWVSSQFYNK

No constants are given. Whether binding was seen depends on the method and setting. Binding seen in cells or lysates may run through a third protein.

In the test the target is BCL2L1/BCLXL (human (endogenous in SH-EP)) (UniProt Q07817). In words: condition: only cells treated with 50 nM MG-2477 for 30 minutes; co-IP; endogenous BCLXL precipitated with 1 ug BCLXL antibody from lysate of SH-EP cells treated with 50 nM MG-2477 for 30 minutes; immunoblot.

In the case of “BECN1/beclin1 (from UniProt Q14457 1-450)”, the binding entry is recorded as “no binding”.
